This passage reports binding results from doi:10.1101/2023.09.08.556779, “Molecular model of a bacterial flagellar motor in situ reveals a “parts-list” of protein adaptations to increase torque” (bioRxiv, 2024).

The test addresses T1, C-terminal FLAG-tagged PflB (C. jejuni 81–176).
T1 sequence: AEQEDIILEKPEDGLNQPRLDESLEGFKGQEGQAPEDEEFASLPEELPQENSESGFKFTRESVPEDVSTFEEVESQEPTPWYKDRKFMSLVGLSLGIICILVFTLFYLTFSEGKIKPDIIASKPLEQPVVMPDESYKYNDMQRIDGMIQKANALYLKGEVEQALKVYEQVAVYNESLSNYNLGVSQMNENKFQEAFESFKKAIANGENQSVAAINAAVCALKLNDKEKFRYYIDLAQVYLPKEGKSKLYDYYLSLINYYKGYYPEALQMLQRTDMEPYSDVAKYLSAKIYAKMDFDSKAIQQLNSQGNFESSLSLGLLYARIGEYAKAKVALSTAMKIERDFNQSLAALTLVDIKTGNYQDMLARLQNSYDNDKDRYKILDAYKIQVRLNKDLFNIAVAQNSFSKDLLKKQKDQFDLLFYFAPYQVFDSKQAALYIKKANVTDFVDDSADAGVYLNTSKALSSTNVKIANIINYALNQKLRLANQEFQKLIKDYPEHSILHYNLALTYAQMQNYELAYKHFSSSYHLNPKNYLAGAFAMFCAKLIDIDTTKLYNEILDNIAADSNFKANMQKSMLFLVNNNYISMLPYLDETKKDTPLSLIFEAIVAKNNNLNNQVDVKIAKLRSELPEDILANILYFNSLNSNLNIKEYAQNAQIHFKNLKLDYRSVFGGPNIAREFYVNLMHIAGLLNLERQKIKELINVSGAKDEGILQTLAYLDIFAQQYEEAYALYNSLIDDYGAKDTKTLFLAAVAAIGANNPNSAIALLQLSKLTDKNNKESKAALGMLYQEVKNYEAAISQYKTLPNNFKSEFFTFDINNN
In words: affinity purification with mass spectrometry; C. jejuni 81–176 ΔpflA or ΔpflB expressing FLAG-tagged PflA or PflB; cells crosslinked with 0.1% formaldehyde, osmotic lysis, α-FLAG M2 affinity resin, LC-MS/MS; FLAG-tag alone as negative control.

These are yes or no findings as the source states them, for the method shown. Binding seen in cells or lysates may run through a third protein. A yes stands for co-enrichment or nearness to the bait. Other partners may have been found. Sequences can lack the tags named with a protein.

In the case of FliL (from UniProt A0A0H3PIF6), the binding result is given as “binds”.
